Measured values taken from patent US20040072738A1 (priority 2000, published 2004).

Assay: general procedure: solution-phase peptide synthesis; EDCI/HOAt; EDCI/DMAP for chromophore acylation

Substance	step yield (late stage modification step) [%]	further results
I: Quinaldoyl-[dC]G[NMeC][NMeC](Me) / II: Quinaldoyl-[dC]G[NMeC][NMeC](Me) (thioester I:1-II:C, I:C-II:1; disulfide I:3-II:3; SMILES CSC[C@H]1C(=O)SC[C@@H](NC(=O)c2ccc3ccccc3n2)C(=O)NCC(=O)N(C)[C@H]2CSSC[C@@H](C(=O)N1C)N(C)C(=O)CNC(=O)[C@H](NC(=O)c1ccc3ccccc3n1)CSC(=O)[C@H](CSC)N(C)C2=O)	52	
I: Quinoxaline2carbonyl-[dC]G[NMeC][NMeC](Me) / II: Quinoxaline2carbonyl-[dC]G[NMeC][NMeC](Me) (thioester I:1-II:C, I:C-II:1; disulfide I:3-II:3; SMILES CSC[C@H]1C(=O)SC[C@@H](NC(=O)c2cnc3ccccc3n2)C(=O)NCC(=O)N(C)[C@H]2CSSC[C@@H](C(=O)N1C)N(C)C(=O)CNC(=O)[C@H](NC(=O)c1cnc3ccccc3n1)CSC(=O)[C@H](CSC)N(C)C2=O)	47	
I: {Quinaldoyl(3-OH)}-[dC]G[NMeC][NMeDha] / II: {Quinaldoyl(3-OH)}-[dC]G[NMeC][NMeDha] (thioester I:1-II:C, I:C-II:1; disulfide I:3-II:3; SMILES C=C1C(=O)SC[C@@H](NC(=O)c2nc3ccccc3cc2O)C(=O)NCC(=O)N(C)[C@H]2CSSC[C@@H](C(=O)N1C)N(C)C(=O)CNC(=O)[C@H](NC(=O)c1nc3ccccc3cc1O)CSC(=O)C(=C)N(C)C2=O)	66	
I: {Quinaldoyl(3-OH,6-OMe)}-[dC]G[NMeC][NMeC](Me) / II: {Quinaldoyl(3-OH,6-OMe)}-[dC]G[NMeC][NMeC](Me) (thioester I:1-II:C, I:C-II:1; disulfide I:3-II:3; SMILES COc1ccc2nc(C(=O)N[C@@H]3CSC(=O)[C@H](CSC)N(C)C(=O)[C@@H]4CSSC[C@@H](C(=O)N(C)[C@@H](CSC)C(=O)SC[C@@H](NC(=O)c5nc6ccc(OC)cc6cc5O)C(=O)NCC(=O)N4C)N(C)C(=O)CNC3=O)c(O)cc2c1)	51	
N-Cbz-D-Cys[N-BOC-Gly-NMe-L-Cys(Acm)-NMe-L--Cys(Me)]-OTce		step yield (coupling step): 83%
N-Cbz-D-Cys[N-Cbz-D-Cys(N-BOC-Gly-NMe-L-Cys(Acm)-NMe-L-Cys(Me))-Gly-NMe-L-Cys(Acm)-NMe-L--Cys(Me)]-OTce		step yield (coupling step): 83%
PEPTIDE1{[Cbz].[dC].G.[NMeCys].[NMeCys(Me)]}|PEPTIDE2{[Cbz].[dC].G.[NMeCys].[NMeCys(Me)]}$PEPTIDE1,PEPTIDE2,5:R2-2:R3|PEPTIDE2,PEPTIDE1,5:R2-2:R3|PEPTIDE1,PEPTIDE2,4:R3-4:R3$$$V2.0		cyclisation yield (cyclisation step): 52%

HELM strings list residues between dots; [ac] is acetyl, [am] amide, other brackets name non-standard units. Bridge positions count the residues as written; N and C are the ends. Square brackets hold non-standard residues; d marks the D form. I, II: the chains in the order shown. * marks the point of attachment. Quinaldoyl(3-OH,6-OMe) = COc1ccc2nc(C(=O)*)c(O)cc2c1; Quinoxaline2carbonyl = O=C(c1cnc2ccccc2n1)*; Quinaldoyl(3-OH) = O=C(c1nc2ccccc2cc1O)*; Quinaldoyl = O=C(c1ccc2ccccc2n1)*; NMeC = CN[C@@H](CS)C(=O)O; NMeDha = C=C(NC)C(=O)O
